Laboratory results from article PMC5095593.

Chains of the proteins cited; added tags and fusions are not shown. Lines headed by an entry give the natural chain unless they say otherwise; changes in a name come on top.
UniProt P25445: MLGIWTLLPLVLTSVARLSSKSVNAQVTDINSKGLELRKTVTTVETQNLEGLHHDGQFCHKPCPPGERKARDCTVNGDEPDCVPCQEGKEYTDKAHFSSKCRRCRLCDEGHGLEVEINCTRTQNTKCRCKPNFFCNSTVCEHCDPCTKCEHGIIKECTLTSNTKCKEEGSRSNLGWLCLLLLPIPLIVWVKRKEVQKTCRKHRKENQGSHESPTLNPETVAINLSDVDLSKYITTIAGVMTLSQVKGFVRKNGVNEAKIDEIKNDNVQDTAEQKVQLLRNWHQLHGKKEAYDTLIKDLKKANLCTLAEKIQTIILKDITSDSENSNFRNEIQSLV
UniProt Q13158: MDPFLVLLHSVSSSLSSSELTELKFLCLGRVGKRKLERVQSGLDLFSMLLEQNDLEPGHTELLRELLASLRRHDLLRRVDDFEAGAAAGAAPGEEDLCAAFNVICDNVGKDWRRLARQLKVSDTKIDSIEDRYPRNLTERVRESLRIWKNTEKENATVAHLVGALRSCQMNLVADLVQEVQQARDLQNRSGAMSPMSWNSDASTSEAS

Experiments:
[1] = target: intracellular domain (IcD) of CD95 fused to glutathione S-transferase (GST-CD95-IcD) (UniProt P25445); assay: pull-down; in vitro DISC model: 10 μg purified GST-CD95-IcD on glutathione Sepharose beads with 10 mg caspase-8 null Jurkat cell lysate, 16 h at 23 °C; beads washed in PBS; endogenous lysate proteins blotted; only the target purified
[2] = target: intracellular domain (IcD) of CD95 fused to glutathione S-transferase (GST-CD95-IcD) (UniProt P25445); assay: pull-down; lysate-free fully reconstituted DISC (r-DISC): GST-CD95-IcD beads, r-FADD (5 μg) and 35S-labelled recombinant procaspase-8b; beads analysed for FADD; both purified

Substance	binding [1]	binding [2]
FADD (Fas-Associated protein with Death Domain), endogenous in caspase-8 null Jurkat cells (from UniProt Q13158 1-208)	binds	–
recombinant FADD (r-FADD) (from UniProt Q13158 1-208)	–	binds

No constants are given. Whether binding was seen depends on the method and setting. Binding seen in cells or lysates may run through a third protein. Binding calls can cover weak binding; strength is not graded here.
